{"source": "patent US20230190883A1", "about": "(Bessor Pharma, LLC, priority 2020, published 2023)", "experiment": "general procedure: Fmoc solid-phase peptide synthesis; ChemMatrix Rink Amide resin; Cl-HOBt / diisopropylcarbodiimide (DCI)", "conditions": "whole synthesis", "note": "One purity is given for all peptides; the source may state it once."}
{"substance": "[Ala^220]-Ac-Renalase A (205-240)-CONH2 (KIDVPWAGQYITSNPAIRFVSIDNKKRNIESSEIGP; N-acetyl, C-terminal amide; Based on homo sapiens sequence)", "values": [{"measurement": "final HPLC purity", "result": ">95", "unit": "%"}]}
